Source: patent US20040162286A1, “Substituted 6-(2-tolyl)-triazolopyrimidines as fungicides” (priority 2001, published 2004)
Some of these results come from one statement about several compounds together.

How the values were obtained:
Format in all cases: in vivo
[1] = tested on: Blumeria graminis f. sp. tritici; test: Fungicidal control of powdery mildew on wheat, protective spray; conditions: untreated plants infected to 85%
Source text: The active compounds, separately or together, were formulated as a 10% emulsion in a mixture of 70% by weight of cyclohexanone, 20% by weight of Nekanil® LN (Lutensol® AP6, wetting agent having emulsifying and dispersant action based on ethoxylated alkylphenols) and 10% by weight of Wettol® EM (nonionic emulsifier based on ethoxylated castor oil) and diluted with water to the desired concentration. The first fully developed leaves of pot grown wheat of the variety “Kanzler” were sprayed to run-off with an aqueous suspension, containing the concentration of active ingredient or their mixture mentioned in the table below, prepared from a stock solution containing 10% of the active ingredient, 85% cyclohexanone and 5% emulsifier. The next day the treated plants were inoculated with spores of Blumeria graminis f. sp. tritici by shaking heavily infestated stock plants over the treated pots. After cultivation in the greenhouse for 7 days at 22-26° C. and a relative humidity between 60 to 90% the extent of fungal attack on the leaves was visually assessed as % diseased leaf area. The test was conducted as described in Comparison trial 2.

[2] = tested on: Plasmopara viticola; test: Fungicidal control of grape downy mildew (Comparison Trial 3, inoculation the next day); conditions: 250 ppm active ingredient; grape cuttings; inoculated next day; untreated plants infected to 80%
Description: The active compounds, separately or together, were formulated as a 10% emulsion in a mixture of 70% by weight of cyclohexanone, 20% by weight of Nekanil® LN (Lutensol® AP6, wetting agent having emulsifying and dispersant action based on ethoxylated alkylphenols) and 10% by weight of Wettol® EM (nonionic emulsifier based on ethoxylated castor oil) and diluted with water to the desired concentration. Grape cuttings of the cultivar “Müller-Thurgau” were grown in pots to the 4 to 5 leaf stage. These plants were sprayed to run-off with an aqueous suspension, containing the concentration of active ingredient or their mixture mentioned in the table below, prepared from a stock solution containing 10% of the active ingredient, 85% cyclohexanone and 5% emulsifier. The plants were allowed to air-dry. The next day they were inoculated with an aqueous spore suspension of Plasmopara viticola by spraying it at the lower leaf-side. Then the trial plants were immediately transferred for 24 h to a humid chamber with 22-24° C. and a relative humidity close to 100%. For a period of 5 days, cultivation followed in a greenhouse at 20-25° C. and a relative humidity about 50-80%. To stimulate the outbreak of the disease symptoms, the plants were transferred to a humid chamber again for 24 hours. Then the extent of fungal attack on the lower leaf surface was visually assessed as % diseased leaf area.

[3] = tested on: Alternaria solani; test: Fungicidal control of early blight on tomatoes, protective spray; conditions: 63 ppm active ingredient; tomato plants; assessed after 6 days; untreated plants infected to 90%
Description: The active compounds, separately or together, were formulated as a 10% emulsion in a mixture of 70% by weight of cyclohexanone, 20% by weight of Nekanil® LN (Lutensol® AP6, wetting agent having emulsifying and dispersant action based on ethoxylated alkylphenols) and 10% by weight of Wettol® EM (nonionic emulsifier based on ethoxylated castor oil) and diluted with water to the desired concentration. Young seedlings of tomato plants of the variety “Groβe Fleischtomate St. Pierre” were grown in pots to the 2 to 4 leaf stage. These plants were sprayed to run-off with an aqueous suspension, containing the concentration of active ingredient mentioned in the table below, prepared from a stock solution containing 10% of the active ingredient, 85% cyclohexanone and 5% emulsifier. The next day, the treated plants were inoculated with an aqueous suspension of Alternaria solani containing 0.2×10^6 spores per ml. Then the trial plants were immediately transferred to a humid chamber. After 6 days at 20 to 23° C. and a relative humidity close to 100%, the extent of fungal attack on the leaves was visually assessed as % diseased leaf area. The test was conducted as described in Comparison trial 1.

[4] = 63 ppm active ingredient, assessed after 7 days

## Cc1cc(F)ccc1-c1c(Cl)nc2ncnn2c1NC(C)C(C)C (racemic) [I-38]
[1]; 250 ppm active ingredient
  infection (% diseased leaf area): not more than 5%

## Cc1cccc(F)c1-c1c(Cl)nc2ncnn2c1N[C@@H](C)C(F)(F)F [I-24]
[2]
  infection (% diseased leaf area, lower leaf surface): not more than 7%
[1]; [4]
  infection (% diseased leaf area): not more than 3%
[3]
  infection (% diseased leaf area): not more than 3%

## CCC(C)Nc1c(-c2ccc(F)cc2C)c(Cl)nc2ncnn12 (racemic) [I-35]
[1]; 250 ppm active ingredient
  infection (% diseased leaf area): not more than 5%

## Cc1cc(F)ccc1-c1c(Cl)nc2ncnn2c1N1CCC(C)CC1 [I-30]
[1]; 250 ppm active ingredient
  infection (% diseased leaf area): not more than 5%

## Cc1cc(F)ccc1-c1c(Cl)nc2ncnn2c1NC(C)C(C)(C)C (racemic) [I-41]
[1]; 250 ppm active ingredient
  infection (% diseased leaf area): not more than 5%

## Cc1cccc(F)c1-c1c(Cl)nc2ncnn2c1NC(C)C(F)(F)F (racemic) [I-23]
[2]
  infection (% diseased leaf area, lower leaf surface): not more than 7%
[1]; [4]
  infection (% diseased leaf area): not more than 3%
[3]
  infection (% diseased leaf area): not more than 3%

## Cc1cc(F)ccc1-c1c(Cl)nc2ncnn2c1NC(C)C(F)(F)F (racemic) [I-44]
[1]; 250 ppm active ingredient
  infection (% diseased leaf area): not more than 5%

## C=C(C)CN(CC)c1c(-c2ccc(F)cc2C)c(Cl)nc2ncnn12 [I-28]
[1]; 250 ppm active ingredient
  infection (% diseased leaf area): not more than 5%

## CCC(C)Nc1c(-c2c(C)cccc2F)c(Cl)nc2ncnn12 (racemic) [I-14]
[1]; 250 ppm active ingredient
  infection (% diseased leaf area): not more than 5%
